Test results published in the supplement of paper PMC4604168 (melanoma cell lines).
Some of the results follow. Repeats are few or missing, and single values can be far off.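 Cells were imaged in 1,536-well plates, and nuclei stained with an antibody against cleaved PARP were counted against all DNA-stained nuclei to give the apoptosis fraction. Screening doses were chosen to leave most cells alive, and resting and induced cleaved-PARP levels differ strongly between cell lines.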

System: A2058
Test: cleaved PARP positive nuclei fraction relative to DMSO control; melanoma cells; higher = more apoptosis
Details: library dose: low library concentration; 72 h

SMILES | cleaved PARP positive nuclei fraction [%]
CS(=O)(=O)c1ccc(C(=O)Nc2ccc(Cl)c(-c3ccccn3)c2)c(Cl)c1 [vismodegib] + COc1cc(N2CCC(N3CCN(C)CC3)CC2)ccc1Nc1ncc(Cl)c(Nc2ccccc2S(=O)(=O)C(C)C)n1 [NVP-TAE684] (first compound 1 µM, partner dose 0.08 µM) | 522
NC(=O)c1ccc(N(C(N)=O)c2c(F)cccc2F)nc1-c1ccc(F)cc1F + O=C(O)C(=O)Nc1sc2c(c1C(=O)O)CCNC2 [TCS401] (first compound 0.4 µM, partner dose 1.66667 µM) | 51.4
CCN(CC)CCNC(=O)c1c(C)[nH]c(/C=C2\C(=O)Nc3ccc(F)cc32)c1C [sunitinib] + CC(C)CCN1c2nc(Nc3cc(F)c(O)c(F)c3)ncc2N(C)C(=O)C1C [BID1870] (first compound 0.4 µM, partner dose 0.2 µM) | 26.6

System: C32
Test: as above
Details: library dose: low library concentration; 72 h

SMILES | cleaved PARP positive nuclei fraction [%]
NC1(c2ccc(-c3nc4ccn5c(=O)[nH]nc5c4cc3-c3ccccc3)cc2)CCC1 + Cc1cc([N+](=O)[O-])ccc1NS(=O)(=O)c1cc(Cl)ccc1Cl [FH535] (first compound 0.4 µM, partner dose 1 µM) | 237
NC1(c2ccc(-c3nc4ccn5c(=O)[nH]nc5c4cc3-c3ccccc3)cc2)CCC1 + O=S(=O)(c1ccccc1)N(CC(F)(F)F)c1ccc(C(O)(C(F)(F)F)C(F)(F)F)cc1 [T0901317] (first compound 0.4 µM, partner dose 1.4 µM) | 26.9
CS(=O)(=O)c1ccc(C(=O)Nc2ccc(Cl)c(-c3ccccn3)c2)c(Cl)c1 [vismodegib] + Oc1cc(-c2nc(-c3ccccc3)[nH]c2-c2ccncc2)ccc1Cl [L779450] (first compound 1 µM, partner dose 0.2 µM) | 147
C[C@]1(O)C[C@@H](c2nc(-c3ccc4ccc(-c5ccccc5)nc4c3)c3c(N)nccn32)C1 + CC(C)CCN1c2nc(Nc3cc(F)c(O)c(F)c3)ncc2N(C)C(=O)C1C [BID1870] (first compound 0.4 µM, partner dose 0.2 µM) | 156
Cn1cnc2c(F)c(Nc3ccc(Br)cc3Cl)c(C(=O)NOCCO)cc21 [selumetinib] + CC(C)CCN1c2nc(Nc3cc(F)c(O)c(F)c3)ncc2N(C)C(=O)C1C [BID1870] (first compound 0.015 µM, partner dose 0.2 µM) | 97.3
C[C@]1(O)C[C@@H](c2nc(-c3ccc4ccc(-c5ccccc5)nc4c3)c3c(N)nccn32)C1 + CCN(CC)CCCCNc1ncc2cc(-c3cc(OC)cc(OC)c3)c(NC(=O)NC(C)(C)C)nc2n1 [PD173074] (first compound 0.4 µM, partner dose 0.1 µM) | 115
CCCCCCCCc1ccc(CCC(N)(CO)CO)cc1 [fingolimod] + Cn1cc(/C=C2\C(=O)Nc3cccnc32)c2ccccc21 [GW441756] (first compound 2 µM, partner dose 0.4 µM) | 81.7
CS(=O)(=O)c1ccc(C(=O)Nc2ccc(Cl)c(-c3ccccn3)c2)c(Cl)c1 [vismodegib] + COc1ccc(COc2ccc(Cc3cnc(N)nc3N)cc2OC)cc1 [GW2580] (first compound 1 µM, partner dose 1 µM) | 72.3
CC(=O)O[C@@]12CO[C@@H]1C[C@H](O)[C@@]1(C)C(=O)[C@H](O)C3=C(C)[C@@H](OC(=O)[C@H](O)[C@@H](NC(=O)OC(C)(C)C)c4ccccc4)C[C@@](O)([C@@H](OC(=O)c4ccccc4)[C@H]21)C3(C)C [Docetaxel] + c1cc(-c2cnn3cc(-c4ccc(OCCN5CCCCC5)cc4)cnc23)ccn1 [Dorsomorphin] (first compound 0.0001 µM, partner dose 0.4 µM) | 105
CS(=O)(=O)c1ccc(C(=O)Nc2ccc(Cl)c(-c3ccccn3)c2)c(Cl)c1 [vismodegib] + O=C(Nc1ccccc1)c1cc([N+](=O)[O-])ccc1Cl [GW9662] (first compound 1 µM, partner dose 2 µM) | 145
NC(=O)c1ccc(N(C(N)=O)c2c(F)cccc2F)nc1-c1ccc(F)cc1F + COc1ccc(-c2ccc3c(N4CCOCC4)nc(N4C[C@@H](C)O[C@@H](C)C4)nc3n2)cc1CO [KU0063794] (first compound 0.4 µM, partner dose 0.02 µM) | 41.5
